The values below come from PMC10567826.

Protein sequences, listed by entry. Tags and fused reporters are not part of them.
UniProt Q08211: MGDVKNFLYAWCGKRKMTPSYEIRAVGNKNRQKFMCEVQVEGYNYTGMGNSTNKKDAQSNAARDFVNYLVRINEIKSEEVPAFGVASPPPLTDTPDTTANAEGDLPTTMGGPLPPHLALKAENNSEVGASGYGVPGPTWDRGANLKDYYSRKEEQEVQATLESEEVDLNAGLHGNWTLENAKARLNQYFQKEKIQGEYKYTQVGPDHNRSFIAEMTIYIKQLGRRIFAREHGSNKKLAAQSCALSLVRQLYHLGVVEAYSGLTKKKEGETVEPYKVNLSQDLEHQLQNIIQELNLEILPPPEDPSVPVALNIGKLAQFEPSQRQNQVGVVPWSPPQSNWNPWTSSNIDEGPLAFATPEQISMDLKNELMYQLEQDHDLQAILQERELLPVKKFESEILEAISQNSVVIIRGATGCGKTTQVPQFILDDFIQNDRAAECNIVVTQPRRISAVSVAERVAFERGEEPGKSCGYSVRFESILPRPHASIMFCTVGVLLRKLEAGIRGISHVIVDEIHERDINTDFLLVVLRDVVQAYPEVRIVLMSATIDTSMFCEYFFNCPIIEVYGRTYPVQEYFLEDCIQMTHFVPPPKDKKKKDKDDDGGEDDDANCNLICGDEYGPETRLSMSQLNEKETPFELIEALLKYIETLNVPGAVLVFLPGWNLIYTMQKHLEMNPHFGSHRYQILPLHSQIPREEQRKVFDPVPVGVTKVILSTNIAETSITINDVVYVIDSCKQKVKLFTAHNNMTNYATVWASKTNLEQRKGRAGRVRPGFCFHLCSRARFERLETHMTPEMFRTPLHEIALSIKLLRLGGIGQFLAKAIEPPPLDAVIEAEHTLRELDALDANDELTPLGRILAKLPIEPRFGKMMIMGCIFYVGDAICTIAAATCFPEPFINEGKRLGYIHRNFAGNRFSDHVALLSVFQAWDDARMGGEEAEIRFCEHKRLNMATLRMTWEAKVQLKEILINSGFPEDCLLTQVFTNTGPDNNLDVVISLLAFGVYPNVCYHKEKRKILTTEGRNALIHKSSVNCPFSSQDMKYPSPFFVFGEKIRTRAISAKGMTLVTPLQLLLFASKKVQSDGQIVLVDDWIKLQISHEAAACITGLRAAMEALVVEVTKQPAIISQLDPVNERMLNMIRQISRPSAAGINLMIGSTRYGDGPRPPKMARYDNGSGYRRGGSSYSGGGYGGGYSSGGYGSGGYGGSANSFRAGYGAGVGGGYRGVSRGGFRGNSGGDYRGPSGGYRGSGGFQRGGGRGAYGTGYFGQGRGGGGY
UniProt Q04206: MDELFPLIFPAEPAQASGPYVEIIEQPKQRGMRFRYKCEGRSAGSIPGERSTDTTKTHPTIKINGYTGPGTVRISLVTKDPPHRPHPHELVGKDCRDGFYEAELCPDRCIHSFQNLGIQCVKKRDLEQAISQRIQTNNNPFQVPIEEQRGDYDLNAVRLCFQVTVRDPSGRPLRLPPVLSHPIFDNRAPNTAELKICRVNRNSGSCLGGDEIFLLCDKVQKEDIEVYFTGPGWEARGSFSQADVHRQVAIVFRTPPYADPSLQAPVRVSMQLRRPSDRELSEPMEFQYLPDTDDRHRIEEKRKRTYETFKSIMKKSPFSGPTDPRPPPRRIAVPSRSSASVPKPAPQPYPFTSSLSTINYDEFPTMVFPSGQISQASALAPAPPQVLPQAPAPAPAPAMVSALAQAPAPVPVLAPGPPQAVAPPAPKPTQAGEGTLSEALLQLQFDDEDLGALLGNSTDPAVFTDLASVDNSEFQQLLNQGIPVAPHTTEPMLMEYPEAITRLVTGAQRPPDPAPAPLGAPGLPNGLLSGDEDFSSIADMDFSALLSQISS

Assay [1] concerns the target DExH-Box helicase 9 (DHX9) (human (endogenous in THP-1-derived macrophages)) (UniProt Q08211). Briefly: co-IP; nuclear fractions of macrophages; immunoprecipitated with DHX9 antibody, Western blot for p65. (In western blotting, separated proteins are transferred to a membrane and probed.)
For assay [2] the target is unchanged. Nature of the assay: co-IP; lysate of macrophages treated with or without 40 μg/mL oxLDL for 24 h; immunoprecipitated with DHX9 antibody, Western blot for p65.

These are yes or no findings as the source states them, for the method shown. Binding seen in cells or lysates may run through a third protein. Some entries that bind do so weakly or less than the wild type.

On to “p65 nuclear factor kappa-light-chain-enhancer of activated B cells (NF-κB) (from UniProt Q04206 1-551)”, for which the binding result in assay [1] and in assay [2] was “binds” each time.
